In patent US10294204B2, “Fluorescence compounds and preparation method thereof” (BioActs Co., Ltd., priority 2016, dated 2019):

Tests used:
[1] = tested on: Gt anti-Ms IgG H+L Secondary Ab; assay: Test Example 5 (1): labeling of antibody with 552 wavelength dyes, D/P ratio and conjugate fluorescence; conditions: 0.5 mg antibody
Description: Compound 18 and the reference fluorescent dye (Alexa Fluor 555 NHS ester) are used to label an antibody (Pierce™ Gt anti-Ms IgG H+L Secondary Ab, 10 mg/mL, Thermo) and the resultant conjugates are compared with each other in terms of fluorescence intensity. Each of Compound 18 and the reference fluorescent dye is dissolved into DMF to provide a stock solution at 10 mg/mL. Samples 1 and 2 are obtained from 0.5 mg of the antibody through the reaction ratio with a dye of 25 mol and Sample 3 is prepared through the reaction with 0.083 mg of Compound 18 in order to further determine the result obtained under the same weight ratio based on the reference fluorescent dye.
The final reaction concentration of the antibody is set to 2 mg/mL and a reaction buffer is prepared by mixing 10 mM phosphate buffered saline (hereinafter, 1×PBS) with pH 9.4 1M sodium-carbonate-bicarbonate buffer (hereinafter, 1M CBC) so that the final pH may be about 8.3-8.5. Samples 1-3 are allowed to react under room temperature/dark chamber/agitation conditions for 1 hour, and purified through a column filled with Sephadex G-25 resin (GE Healthcare) to isolate the conjugates. The resin is subjected to buffer equilibrium (buffer change) with 1×PBS before its use. At a wavelength of 280/552 nm, each conjugate is subjected to absorption spectrometry (Cary 8454 UV-Vis spectrophotometer, Agilent) to determine the Dye/Protein ratio (D/P ratio) first. Next, the conjugates are determined for fluorescence (LS 55 Fluorescence spectrometer, Perkin Elmer) to carry out comparison of fluorescence intensity. Fluorescence determination is carried out by mixing each conjugate with 3 mL of 1×PBS to perform dilution and then under the setting of Excitation 552 nm.
The same results can be seen herein.

[2] = tested on: Gt anti-Rb IgG H+L Secondary Ab; assay: Test Example 5 (3),(4): fluorescence intensity of IgG conjugates of 650 wavelength dye depending on reacted amount and labeling ratio; conditions: for tendency of fluorescence intensity depending on the reacted amount of dye: 0.01-0.14 mg dye per 0.5 mg antibody
Description: The conjugates extracted from Test Example 5-(2) are used to compare the fluorescence intensity of Compound 20 with that of the reference fluorescent dye upon the labeling of a protein as a function of reacted amount. To the first line and the second line of a 96-well black plate, [IgG-Compound 20] conjugate and [IgG-reference fluorescent dye] conjugate is injected after diluting each conjugate at a ratio of 1/10 in the order of dye amount. To the fourth line, 1×PBS is introduced as a blank. All analytical samples are introduced in an amount of 100 μL and the protein concentration is the same with a neglectable error. Then, imaging is carried out in an FOBR Red channel and analysis based on a multilabel plate reader (Enspire 2300, Perkin Elmer) is performed in order to accomplish more accurate numerical comparison. Determination is carried out under adequate setting conditions including Ex. 650 nm/Em. 655 nm, a number of flashes of 200, or the like. […] The maximum fluorescence intensity is determined when 0.5 mg of the antibody reacts with 0.1 mg of Compound 20. When the reaction amount of Compound 20 is merely 0.03 mg, the fluorescence intensity is similar to the maximum value. Thus, it is expected that, Compound 20 is excellent as compared to the reference fluorescent dye and may show higher fluorescence even when used in a smaller amount for labeling a biomolecule.
Based on the results of Test Examples 5-(2) and 5-(3), the fluorescence intensity of each of Compound 20 and the reference fluorescent dye depending on labeling ratio is shown in FIG. 13. […] It can be also seen that even when the reacted amount of dye is smaller, i.e., when the labeling ratio is lower, Compound 20 accomplishes higher fluorescence intensity as compared to the reference fluorescent dye. […] In the case of the reference fluorescent dye, auto-quenching proceeds form a relatively low labeling ratio of about 6.

[3] = tested on: Gt anti-Rb IgG H+L Secondary Ab; assay: Test Example 5 (2): labeling ratio (D/P ratio) of 650 wavelength dye depending on reacted amount of dye; conditions: Ab 0.5 mg
Description: Each of Compound 20 and the reference fluorescent dye (Alexa Fluor 647 NHS ester) is used for labeling 0.5 mg of an antibody (Pierce™ Gt anti-Rb IgG H+L Secondary Ab, 10 mg/mL, Thermo) at a different weight ratio. For reference, Compound 20 has a molecular weight of 1254.7 g/mole and the reference fluorescent dye has a molecular weight of 956.1 g/mole. The same labeling method as Test Example 5-(1) is repeated, except that the amount of a dye is set to 0.01, 0.03, 0.05, 0.10 or 0.14 mg. Each conjugate isolated after the labeling and purification is analyzed for absorbance at a wavelength of 280/650 nm, and the generally known mathematical formula is used to calculate labeling ratios. For Compound 20 and the reference fluorescent dye, a molar absorption coefficient of 239,000/cmM (in PBS), a protein molar absorption coefficient of 203,000/cmM and a correction factor (CF280) of 0.03 are used. […] When at least 0.10 mg (about 25 moles after molar conversion) of a dye is reacted without application of molar ratio, the labeling ratio of Compound 20 starts to be higher than that of the reference fluorescent dye. In addition, as mentioned above, Compound 20 has a molecular weight of 1254.7 g/mole which is larger than the molecular weight (956.1 g/mole) of the reference fluorescent dye (by about 30% or more). Thus, even though Compound 20 and the reference fluorescent dye are used at the same weight, Compound 20 is introduced in a relatively smaller molar number as compared to the reference fluorescent dye.

[4] = reaction ratio with dye of 25 mol (Samples 1 and 2)

Row | Compound | D/P ratio ([1]; 0.083 mg of dye (8.30 uL), same weight as reference dye (Sample 3)) | D/P ratio [1, 4] | reacted amount of dye giving the maximum fluorescence intensity ([2]; 0.5 mg of the antibody) | tendency of fluorescence intensity depending on the reacted amount of dye [2] | D/P ratio ([3]; dye 0.01 mg (1 uL)) | D/P ratio ([3]; dye 0.03 mg (3 uL)) | D/P ratio ([3]; dye 0.05 mg (5 uL)) | D/P ratio ([3]; dye 0.10 mg (10 uL)) | D/P ratio ([3]; dye 0.14 mg (14 uL)) | labeling ratio from which auto-quenching proceeds ([2]; FIG. 13)
1 | CC1(CCCCCC(=O)NCCCNc2nc(Cl)nc(NCCCCCC(=O)ON3C(=O)CCC3=O)n2)C(/C=C/C=C2/N(CCCS(=O)(=O)O)c3ccc(S(=O)(=O)O)cc3C2(C)C)=[N+](CCCS(=O)(=O)O)c2ccc(S(=O)(=O)[O-])cc21 (centres unmarked) [Compound 18] | 7.12 | 8.42 |  |  |  |  |  |  |  | 
2 | CC1(CCCCCC(=O)NCCCNc2nc(Cl)nc(NCCCCCC(=O)ON3C(=O)CCC3=O)n2)C(/C=C/C=C/C=C2/N(CCCS(=O)(=O)O)c3ccc(S(=O)(=O)O)cc3C2(C)C)=[N+](CCCS(=O)(=O)[O-])c2ccc(S(=O)(=O)O)cc21 (centres unmarked) [Compound 20] |  |  | 0.1 mg | continuous increase in intensity even up to 0.10 mg | 1.04 | 3.01 | 4.45 | 7.40 | 10.13 | 
3 | Alexa Fluor 555 NHS ester [reference compound] |  | 8.71 |  |  |  |  |  |  |  | 
4 | Alexa Fluor 647 NHS ester [reference compound] |  |  |  | decrease in intensity after 0.05 mg | 1.35 | 3.42 | 5.37 | 7.27 | 9.76 | about 6
